These are yes or no findings as the source states them, for the method shown. Some binding calls cover weakened binding; strength is not graded here. Where a sequence is shown, tags or fusion partners need not be part of it.
Molecular target: T1, His-tagged, recombinant mouse FAP (ab271506, Abcam) (mouse) (UniProt P97321)
T1 sequence (looked up): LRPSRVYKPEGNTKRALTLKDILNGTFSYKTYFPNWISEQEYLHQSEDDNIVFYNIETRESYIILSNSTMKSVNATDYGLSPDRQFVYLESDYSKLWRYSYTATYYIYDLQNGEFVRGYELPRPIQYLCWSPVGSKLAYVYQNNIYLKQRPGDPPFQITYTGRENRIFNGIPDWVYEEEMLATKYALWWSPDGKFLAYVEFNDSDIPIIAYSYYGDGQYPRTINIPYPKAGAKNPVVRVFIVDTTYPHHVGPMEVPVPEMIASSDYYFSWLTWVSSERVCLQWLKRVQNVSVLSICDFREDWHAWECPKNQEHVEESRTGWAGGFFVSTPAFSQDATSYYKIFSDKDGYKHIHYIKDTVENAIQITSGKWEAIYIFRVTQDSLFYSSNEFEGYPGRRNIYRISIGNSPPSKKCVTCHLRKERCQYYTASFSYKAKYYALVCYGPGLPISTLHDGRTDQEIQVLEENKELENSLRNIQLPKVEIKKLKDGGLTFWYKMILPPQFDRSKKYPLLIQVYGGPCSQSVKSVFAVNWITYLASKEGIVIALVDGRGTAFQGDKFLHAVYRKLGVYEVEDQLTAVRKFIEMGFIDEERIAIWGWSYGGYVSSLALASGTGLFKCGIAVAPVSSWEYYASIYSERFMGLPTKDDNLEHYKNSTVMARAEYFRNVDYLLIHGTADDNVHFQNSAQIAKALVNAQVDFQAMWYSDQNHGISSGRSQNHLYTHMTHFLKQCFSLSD
Experiment: flow cytometry; splenic T cells stained with His-tagged recombinant FAP and anti-His-PE

binding: binds
B1: FAPCAR (murine-FAPCAR; CAR containing the scFv fragment from mouse-specific FAP monoclonal antibody clone 73.3 with mouse CD3zeta and CD28 cytoplasmic … (protein)
chain: GSQVQLKESGGGLVQPGGSLKLSCAASGFTFSSYGMSWVRQTADKRLELVATTNNNGGVTYYPDSVKGRFTISRDNAKNTLYLQMSSLQSEDTAMYYCARYGYYAMDYWGQGISVTVSSGGGGSGGGGSSGGGSDVLMTQTPLSLPVSLGDQASISCRSSQSIVHSNGNTYLEWYLQKPGQSPKLLIYKVSNRFSGVPDRFSGSGSGTDFTVKISRVEAEDLGVYYCFQGSHVPYTFGGGTKLEIKAAATTTKPVLRTPSPVHPTGTSQPQRPEDCRPRGSVKGTGLDFACDIYIWAPLAGICVALLLSLIITLICYHRSRNSRRNRLLQVTTMNMTPRRPGLTRKPYQPYAPARDFAAYRPRAKFSRSAETAANLQDPNQLYNELNLGRREEYDVLEKKRARDPEMGGKQQRRRNPQEGVYNALQKDKMAEAYSEIGTKGERRRGKGHDGLYQGLSTATKDTYDALHMQTLAPR
